Laboratory results from the supplement of paper PMC7125110.
± gives the standard error. The uncertainty is large for many entries.

B1: glmS ribozyme (parent)
chain: AUAAAAGCGCCAGAACUACAGAAAUGUAGUUGACGAGGAGGAGGUUUAUCGAAUUUUCGGCGGAUGCCUCCAAA

Variants of: B1
Test: KM; higher = weaker cofactor use; RNA array
Details: with glucosamine-6-phosphate
Method in brief: (§1)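 E. coli RNA polymerase transcribed barcoded ribozyme variants in situ on sequenced MiSeq chips, which were tracked via a hybridised Cy3 probe at 37 °C. Tiles were imaged over ~14 h after glucosamine-6-phosphate (40 μM to 10 mM) in HEPES/KCl/Mg(OAc)2 buffer was flowed in. Normalised per-tile medians were fit to one- or two-exponential decays for kobs, and kcat and KM came from weighted Michaelis–Menten fits.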

Row | Variant | KM [µM]
1 | G51A C68A | 141 ± 140
2 | C61U C68U | 97 ± 74
3 | A48G C50A G63A | 29.7 ± 27
4 | G41U G66A | 1820 ± 560
5 | U45A C71U | 2060 ± 810
6 | U45A C71A | 1010 ± 610
7 | U45A C71G | 458 ± 340
8 | U46C U55C | 3630 ± 1700
9 | G66U C68U | 1260 ± 190
10 | A42G C67U | 343 ± 200
11 | A42G C67A | 524 ± 310
12 | U46G C68A | 281 ± 210
13 | A48U C67A | 714 ± 700
14 | A53G C61U | 11500 ± 850
15 | U55G C67A | 88.4 ± 54
16 | U56A C71A | 2960 ± 1600
17 | U56A A64C | 594 ± 550
18 | G44C U54C | 3920 ± 2700
19 | U56C C67U | 7870 ± 360
20 | G40A A53C | 2000 ± 1300
21 | G40A A53U | 2130 ± 1300
22 | U46C A48U | 1540 ± 940
23 | U46C A48C | 4620 ± 2400
24 | U69C C71G | 28.1 ± 21
25 | A52U C71G | 1700 ± 380

Row | Variant | KM [µM]
26 | G41C U46G | 2060 ± 210
27 | U46A G60A | 27.6 ± 23
28 | U56G C70U | 142 ± 93
29 | C58U A64G | 2680 ± 1300
30 | G44A A53C | 1690 ± 1200
31 | A64G U65G | 4490 ± 1700
32 | C67A C70U | 878 ± 530
33 | A53C C68U | 858 ± 310
34 | A52U U55G | 2150 ± 980
35 | G66A C67U | 697 ± 380
36 | A64G U69A | 1230 ± 510
37 | G40A A64C | 2850 ± 1500
38 | U45G A52U | 12200 ± 4700
39 | A48U U55A | 1310 ± 530
40 | A53C U54A | 2810 ± 1700
41 | G40C C71A | 1710 ± 940
42 | U55C U56G | 4170 ± 2400
43 | U47A C67A | 2150 ± 1400
44 | A53G U54A | 912 ± 610
45 | U57A A64U | 865 ± 550
46 | G44C U55C | 125 ± 78
47 | C70U | 517 ± 260
48 | G44U U54A | 983 ± 780
49 | A53U C58G | 1390 ± 370
50 | A52G G66U | 4030 ± 1300

Row | Variant | KM [µM]
51 | U57A C71G | 12400 ± 6200
52 | U45A U56C | 3070 ± 1400
53 | A42U A53C | 3050 ± 1500
54 | G40C U55G | 662 ± 360
55 | A39U U56C | 2130 ± 950
56 | A39U U56G | 7160 ± 3700
57 | C58G G63A | 582 ± 470
58 | G43U A53G | 793 ± 120
59 | G43U A53U | 2760 ± 880
60 | U57A C67A | 3150 ± 2100
61 | C58A G66U | 2010 ± 1100
62 | U56G U69A | 246 ± 200
63 | U54C U65G | 5410 ± 1800
64 | U54C U65C | 836 ± 700
65 | U45G U65G | 2200 ± 1000
66 | U46C A53U | 1640 ± 260
67 | G43U U56C | 211 ± 110
68 | G43U U56A | 3380 ± 2200
69 | G41U U69C | 876 ± 520
70 | A39U G41A | 651 ± 93
71 | U57C U65G | 631 ± 440
72 | G41A A48U | 585 ± 570
73 | A48U U54G | 1560 ± 790
74 | A48U U54C | 4280 ± 2200
75 | C67U C70U | 1370 ± 110

Individual results from above.
G40C U55G – KM [µM]: 662 ± 360
G43U U56C – KM [µM]: 211 ± 110
U45A U56C – KM [µM]: 3070 ± 1400
A39U U56C – KM [µM]: 2130 ± 950

(cont.)

Row | Variant | KM [µM]
76 | G66C C70A | 531 ± 510
77 | G41U U47C | 1250 ± 1100
78 | U49G C70G | 72.1 ± 49
79 | G41C C70U | 931 ± 570
80 | U46A G66U | 5940 ± 2100
81 | U45G C71U | 2380 ± 450
82 | U55A C58G | 17000 ± 11000
83 | C67G C68U | 234 ± 34
84 | A53G U56A | 1830 ± 890
85 | U46C U56G | 1390 ± 310
86 | A42U C70A | 813 ± 290
87 | G44U A52U | 11000 ± 1500
88 | C67U C71G | 65 ± 47
89 | C67U C71A | 1030 ± 530
90 | G43C C68U | 1370 ± 190
91 | G40U C70G | 1770 ± 560
92 | U65A C68U | 499 ± 310
93 | A39U G40U C70U | 334 ± 250
94 | U49A | 442 ± 350
95 | U49G U54G C67A | 268 ± 250
96 | U55G U69C | 33.6 ± 22
97 | G40C U49G | 1460 ± 1400
98 | G40A C68U | 879 ± 770
99 | U65G C67U C68U | 2360 ± 1900
100 | G44U G66A | 1210 ± 650

Row | Variant | KM [µM]
101 | A42G C70G | 261 ± 120
102 | C58U C71A | 19700 ± 5800
103 | G41C C71G | 1150 ± 1000
104 | U49G C67G | 1300 ± 660
105 | A39U U49G | 2400 ± 1200
106 | U47C A64G | 1890 ± 650
107 | C50A G51A | 75.6 ± 67
108 | G41U | 1300 ± 760
109 | G41A | 2940 ± 1900
110 | G41C U55A | 1280 ± 280
111 | G41C U55C | 2540 ± 1400
112 | U56G C67U | 1070 ± 700
113 | U45A U55A | 312 ± 200
114 | U54C C70G | 104 ± 73
115 | U54C C70A | 379 ± 290
116 | U49A C67U | 256 ± 130
117 | U46G G66A | 2580 ± 720
118 | A64G C67U | 1860 ± 470
119 | A52C U65G | 197 ± 67
120 | U55C U65C | 1500 ± 780
121 | G44C | 1980 ± 570
122 | U47G U55G | 1110 ± 640
123 | U55A G66A | 2410 ± 1300
124 | U55A G66U | 2070 ± 1400
125 | U46A C70U | 1440 ± 970

Row | Variant | KM [µM]
126 | G59A C71U | 1210 ± 130
127 | U56A C70A | 74.4 ± 60
128 | U56A C58G | 1930 ± 470
129 | A64C C71G | 75.1 ± 65
130 | U46A U56G | 3570 ± 1800
131 | G40U U65C | 436 ± 380
132 | U46A A64G | 2700 ± 990
133 | A42G U46A | 1200 ± 320
134 | U46A U47G | 1480 ± 970
135 | U47G U54A | 1710 ± 1100
136 | U56G G59A | 1920 ± 460
137 | C61A C68U | 202 ± 130
138 | A48G C71U | 382 ± 350
139 | U55G G66C | 1400 ± 710
140 | U54G U56A G63C | 189 ± 180
141 | C58A | 4110 ± 820
142 | C58U | 4350 ± 360
143 | C50A | 579 ± 130
144 | U56G U65C | 6800 ± 1000
145 | U46G U55C | 3110 ± 1900
146 | U46G U55A | 4010 ± 2100
147 | U55G C70G | 103 ± 81
148 | A48G C58U | 1220 ± 940
149 | U56A U65A | 2730 ± 1500
150 | A42G A53U | 2240 ± 990

Variants of: B1
Test: self-cleavage kobs at 640 uM GlcN6P; higher = faster cleavage; RNA array
Details: with glucosamine-6-phosphate
Method in brief: as §1

Row | Variant | self-cleavage kobs at 640 uM GlcN6P [s⁻¹]
151 | G51A C68A | 2.73e-05 ± 1.7e-05
152 | U56A A64C | 2.05e-05 ± 1.6e-05
153 | G44C U54C | 1.66e-05 ± 1.6e-05
154 | U46C A48U | 1.68e-05 ± 1e-05
155 | G41C U46G | 2.3e-05 ± 1.9e-05
156 | U49A | < 1e-05
157 | G41C U55A | 2.6e-05 ± 2.5e-05
158 | G41C U55C | 2.73e-05 ± 1.6e-05
159 | G59A C71U | 2.36e-05 ± 1.4e-05
160 | G40U U65C | 3.05e-05 ± 1.9e-05

Variants of: B1
Test: self-cleavage kobs at 2500 uM GlcN6P; higher = faster cleavage; RNA array
Details: with glucosamine-6-phosphate
Method in brief: as §1

Row | Variant | self-cleavage kobs at 2500 uM GlcN6P [s⁻¹]
161 | G51A C68A | 2.69e-05 ± 1.7e-05
162 | U45A C71U | 0.0611 ± 0.033
163 | U46G C68A | 2.3e-05 ± 2.1e-05
164 | U55G C67A | 0.00778 ± 0.0068
165 | G40A A64C | 2.96e-05 ± 1.7e-05
166 | G44C U55C | 3.04e-05 ± 1.6e-05
167 | C58A G66U | 3.5e-05 ± 1.8e-05
168 | A42G U46A | 0.00194 ± 0.001

In another format: entries from further up
G51A C68A
  self-cleavage kobs at 2500 uM GlcN6P [s⁻¹] = 2.69e-05 ± 1.7e-05
U45A C71U
  self-cleavage kobs at 2500 uM GlcN6P [s⁻¹] = 0.0611 ± 0.033
G44C U55C
  self-cleavage kobs at 2500 uM GlcN6P [s⁻¹] = 3.04e-05 ± 1.6e-05
A42G U46A
  self-cleavage kobs at 2500 uM GlcN6P [s⁻¹] = 0.00194 ± 0.001

Variants of: B1
Test: self-cleavage kobs at 160 uM GlcN6P; higher = faster cleavage; RNA array
Details: with glucosamine-6-phosphate
Method in brief: as §1

Row | Variant | self-cleavage kobs at 160 uM GlcN6P [s⁻¹]
169 | A48U C67A | 2.2e-05 ± 2e-05
170 | U56A A64C | 2.59e-05 ± 2.5e-05
171 | A48U U54C | 3.41e-05 ± 1.9e-05
172 | G41U U47C | 2.95e-05 ± 2.9e-05
173 | U65G C67U C68U | 2.77e-05 ± 2.7e-05
174 | U49G C67G | 1.98e-05 ± 1.9e-05
175 | A39U U49G | 2.46e-05 ± 1.7e-05
176 | U46A A64G | 0.000211 ± 0.00015
177 | C50A | < 1e-05

Variants of: B1
Test: self-cleavage kobs at 10000 uM GlcN6P; higher = faster cleavage; RNA array
Details: with glucosamine-6-phosphate
Method in brief: as §1

Row | Variant | self-cleavage kobs at 10000 uM GlcN6P [s⁻¹]
178 | A53G C61U | 1.19e-05 ± 8e-06
179 | U56C C67U | 2.11e-05 ± 1.1e-05
180 | U57A C71G | 2.37e-05 ± 1.5e-05
181 | G43U A53G | 4.36e-05 ± 2.3e-05
182 | G43U A53U | 2.07e-05 ± 1.5e-05
183 | G41U U69C | 3.6e-05 ± 2e-05

Variants of: B1
Test: self-cleavage kobs at 40 uM GlcN6P; higher = faster cleavage; RNA array
Details: with glucosamine-6-phosphate
Method in brief: as §1

Row | Variant | self-cleavage kobs at 40 uM GlcN6P [s⁻¹]
184 | G40C U55G | 2.42e-05 ± 1.2e-05
185 | A39U G41A | 1.48e-05 ± 8.6e-06
186 | C67U C70U | < 1e-05
187 | G43C C68U | 1.53e-05 ± 1.2e-05
188 | A39U U49G | 2.58e-05 ± 1.8e-05
189 | U46A U56G | 3.22e-05 ± 1.8e-05
190 | U55G G66C | 2.46e-05 ± 1.6e-05
